PMC5996148
“And” between values parts separate entries of the source, which are not always exact repeats. Equal entries are not always repeated. The list shows a part of the results.

Experiments:
Assay in all cases: protein microarray (ProtoArray v5.0), streptavidin-Alexa Fluor 647
Conditions in all cases: 3'-biotin; 20 mM Tris (pH 7.5), 5 mM MgCl2, 100 mM KCl, 0.1% Tween-20, A/T-rich and random oligonucleotide blockers; temperature not stated; high values mean tight binding
MDP-1 (human) = tested on: MDP-1 (human)
MED21 (human) = tested on: MED21 (human)
MED28 (human) = tested on: MED28 (human)
MEF2B (human) = tested on: MEF2B (human)
MEIS3 (human) = tested on: MEIS3 (human)
MFGE8 (human) = tested on: MFGE8 (human)
MGC10334 (human) = tested on: MGC10334 (human)
MGC10600 (human) = tested on: MGC10600 (human)
MGC10955 (human) = tested on: MGC10955 (human)
MGC13057 (human) = tested on: MGC13057 (human)
MGC23985 (human) = tested on: MGC23985 (human)
MGC24103 (human) = tested on: MGC24103 (human)
MGC24125 (human) = tested on: MGC24125 (human)
MGC29506 (human) = tested on: MGC29506 (human)
MGC31957 (human) = tested on: MGC31957 (human)
MGRN1 (human) = tested on: MGRN1 (human)
MIR16 (human) = tested on: MIR16 (human)
MITF (human) = tested on: MITF (human)
MKNK2 (human) = tested on: MKNK2 (human)
MLC1 (human) = tested on: MLC1 (human)

**Q.** With “GGTGACAGGGGTATGGGGAGGGG [G4-2 biotinylated (Ct1)]” as the sequence, how does the binding signal (MDP-1 (human)) read?
**A.** The binding signal was -0.392 z-score and -0.399 z-score.

**Q.** And the binding signal (MED21 (human))?
**A.** The binding signal was -0.395 z-score.

**Q.** What about the binding signal (MED28 (human)) of the same sequence?
**A.** The binding signal was -0.386 z-score.

**Q.** And the binding signal (MEF2B (human))?
**A.** Its binding signal is -0.373 z-score.

**Q.** What about the binding signal (MEIS3 (human)) of the same sequence?
**A.** The binding signal was -0.397 z-score.

**Q.** And the binding signal (MFGE8 (human))?
**A.** Its binding signal is -0.384 z-score.

**Q.** What about the binding signal (MGC10334 (human)) of the same sequence?
**A.** The binding signal was -0.373 z-score.

**Q.** What about the binding signal (MGC10600 (human)) of the same sequence?
**A.** Its binding signal is -0.376 z-score.

**Q.** And the binding signal (MGC10955 (human))?
**A.** The binding signal was -0.368 z-score.

**Q.** And the binding signal (MGC13057 (human))?
**A.** Its binding signal is -0.389 z-score.

**Q.** What about the binding signal (MGC23985 (human)) of the same sequence?
**A.** The binding signal was -0.386 z-score.

**Q.** And the binding signal (MGC24103 (human))?
**A.** The binding signal was -0.396 z-score.

**Q.** And the binding signal (MGC24125 (human))?
**A.** The binding signal was -0.397 z-score.

**Q.** And the binding signal (MGC29506 (human))?
**A.** Its binding signal is -0.377 z-score.

**Q.** What about the binding signal (MGC31957 (human)) of the same sequence?
**A.** Its binding signal is 5.59 z-score.

**Q.** And the binding signal (MGRN1 (human))?
**A.** Its binding signal is -0.388 z-score.

**Q.** And the binding signal (MIR16 (human))?
**A.** The binding signal was -0.379 z-score.

**Q.** What about the binding signal (MITF (human)) of the same sequence?
**A.** Its binding signal is -0.362 z-score.

**Q.** What about the binding signal (MKNK2 (human)) of the same sequence?
**A.** The binding signal was -0.374 z-score.

**Q.** And the binding signal (MLC1 (human))?
**A.** The binding signal was -0.378 z-score.
